Article PMC5906627
These are yes or no findings as the source states them, for the method shown. Binding seen in cells or lysates may run through a third protein. Binding can be weak; no strength is given.

Target: TNFR1 (human (endogenous in MCF-7))
Assay: co-IP; 400 ug MCF-7 lysate (25 mM Tris-HCl pH 7.4, 150 mM NaCl, 1 mM EDTA, 1% NP-40, 5% glycerol) incubated overnight with rabbit monoclonal anti-TNFRI antibody, Protein A beads 4 h; blots for FADD, TRADD and TNFRI; cells treated with Z-DAN-11 for several times

B1: TRADD (protein, UniProt Q15628 1-312)
chain: MAAGQNGHEEWVGSAYLFVESSLDKVVLSDAYAHPQQKVAVYRALQAALAESGGSPDVLQMLKIHRSDPQLIVQLRFCGRQPCGRFLRAYREGALRAALQRSLAAALAQHSVPLQLELRAGAERLDALLADEERCLSCILAQQPDRLRDEELAELEDALRNLKCGSGARGGDGEVASAPLQPPVPSLSEVKPPPPPPPAQTFLFQGQPVVNRPLSLKDQQTFARSVGLKWRKVGRSLQRGCRALRDPALDSLAYEYEREGLYEQAFQLLRRFVQAEGRRATLQRLVEALEENELTSLAEDLLGLTDPNGGLA
- binding: binds
